Data as given in PubChem BioAssay AID1259314 (Drosophila RNAi Screening Center, 2017)
Shown is one part, drawn at random, of about 3,100 reagents. 289 of all reagents (9.3%) count as active. 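Active includes both higher and lower ATP than plate average; check the z-score sign for direction.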 Unmarked entries are inactive. Not stated in the record: the amount of reagent.

- Test: 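Genes whose knock-down alters cell survival under toxic manganese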 (primary screen)
- System: Drosophila S2R+ cells
- Knock-down reagent: long dsRNA against Drosophila genes
- Time to read-out: 5 days (4 days knock-down, then 1 day metal exposure)
- Conditions: manganese chloride added to 15 mM for 24 hours
- Measured: 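Cellular ATP measured by luciferase light, scaled to the plate mean, averaged across replicates and z-scored over plates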
- Reading the numbers: mean ATP z-score: higher = more ATP than the plate average, more viable cells under manganese
- Active means: 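Called active when the mean ATP z-score is above 1.5 or below -1.5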
- Calls: active = strong ATP change, up or down; inactive = no strong ATP change

Against PMCA [DRSC17113], the values are mean ATP z-score -0.833. After knock-down of PMCA [DRSC17114] the results were mean ATP z-score -1.17. PMCA [DRSC17154] showed mean ATP z-score -1.29. Knock-down of Ac78C [DRSC11602] came out at: mean ATP z-score -1.85 (active). Ac78C [DRSC11619] showed mean ATP z-score 0.42. Against Tpc2 [DRSC04322] the deposit lists mean ATP z-score 0.33.

ste24a [DRSC07314] showed mean ATP z-score -0.246. Depletion of ste24a [DRSC26491] resulted in: mean ATP z-score 0.0936. Against boi [DRSC18425] the deposit lists mean ATP z-score 1.2. With knock-down of boi [DRSC25851], the record shows mean ATP z-score -0.0682. Depletion of Eaat2 [DRSC00032] came out at: mean ATP z-score 1. With knock-down of Eaat2 [DRSC00749], the record shows mean ATP z-score 0.469.

Silencing of Eaat2 [DRSC26070] gave: mean ATP z-score 0.991. rho-4 [DRSC19761] gave mean ATP z-score 1.96 (active). Against rho-4 [DRSC19762] the deposit lists mean ATP z-score -0.403. With knock-down of Abcd3 [DRSC19488], the screen gave mean ATP z-score 0.196. With knock-down of Abcd3 [DRSC29341], the screen gave mean ATP z-score 0.035. With knock-down of CG9447 [DRSC05008], the screen gave mean ATP z-score -0.158.

Knock-down of Hmgcr [DRSC16704] resulted in: mean ATP z-score 0.79. After knock-down of Gr98a [DRSC14719], the record shows mean ATP z-score 0.0865. Npl4 [DRSC15615] gave mean ATP z-score -0.837. With knock-down of Npl4 [DRSC15616], the screen gave mean ATP z-score -0.245. Mayo [DRSC14300] scored mean ATP z-score -0.135. Tsp97E [DRSC16019] scored mean ATP z-score -0.202.

Depletion of Tsp97E [DRSC28053] gave: mean ATP z-score 0.194.

Reformatted: 5 of the entries above
gene,dsRNA,mean ATP z-score
Hmgcr,DRSC16704,0.79
Gr98a,DRSC14719,0.0865
Npl4,DRSC15615,-0.837
Npl4,DRSC15616,-0.245
Mayo,DRSC14300,-0.135

The results go on.
Syngr [DRSC06003] gave mean ATP z-score 0.791. For Syngr [DRSC39806] the deposit lists mean ATP z-score -0.415. Against Grl65a [DRSC08837] the deposit lists mean ATP z-score 0.184. Grl65a [DRSC25986] gave mean ATP z-score -0.838. Silencing of CG12438 [DRSC02167] came out at: mean ATP z-score -0.258. After knock-down of Cad96Ca [DRSC14220], the record shows mean ATP z-score -0.491.

After knock-down of Cad96Ca [DRSC16693], the screen gave mean ATP z-score -0.181. Silencing of Cad96Ca [DRSC36738] came out at: mean ATP z-score -0.143. For CG13978 [DRSC14720], the entry reads mean ATP z-score -0.00328. After knock-down of CG32263 [DRSC22431] the results were mean ATP z-score -1.38. Knock-down of CG32263 [DRSC29009] gave: mean ATP z-score -0.752. Knock-down of CG10864 [DRSC14273] came out at: mean ATP z-score -0.149.

CG31183 [DRSC14403] showed mean ATP z-score 1.42. Against CG31183 [DRSC15554], the values are mean ATP z-score -0.569. Depletion of CG14971 [DRSC08430] came out at: mean ATP z-score -0.433. Gr22e [DRSC20912] gave mean ATP z-score 1.73 (active). After knock-down of Inx7 [DRSC18784] the results were mean ATP z-score 0.154. For Inx7 [DRSC24113], the entry reads mean ATP z-score 0.523.

With knock-down of zpg [DRSC09702] the results were mean ATP z-score -0.742. Knock-down of zpg [DRSC26258] gave: mean ATP z-score 0.00792. CG12746 [DRSC12218] showed mean ATP z-score 0.501. For CG12746 [DRSC36915] the deposit lists mean ATP z-score 0.173.
